# Laboratory results reported in the supplement of paper PMC12819154, “High-throughput peptide-centric local stability assay extends protein–ligand identification to membrane proteins, tissues and bacteria” (Nature Structural & Molecular Biology, 2025).
# Amino acid sequences for entries named in this document (tags omitted). A change or cut given only in a name is not applied to a line headed by its entry.
# UniProt Q7L7X3: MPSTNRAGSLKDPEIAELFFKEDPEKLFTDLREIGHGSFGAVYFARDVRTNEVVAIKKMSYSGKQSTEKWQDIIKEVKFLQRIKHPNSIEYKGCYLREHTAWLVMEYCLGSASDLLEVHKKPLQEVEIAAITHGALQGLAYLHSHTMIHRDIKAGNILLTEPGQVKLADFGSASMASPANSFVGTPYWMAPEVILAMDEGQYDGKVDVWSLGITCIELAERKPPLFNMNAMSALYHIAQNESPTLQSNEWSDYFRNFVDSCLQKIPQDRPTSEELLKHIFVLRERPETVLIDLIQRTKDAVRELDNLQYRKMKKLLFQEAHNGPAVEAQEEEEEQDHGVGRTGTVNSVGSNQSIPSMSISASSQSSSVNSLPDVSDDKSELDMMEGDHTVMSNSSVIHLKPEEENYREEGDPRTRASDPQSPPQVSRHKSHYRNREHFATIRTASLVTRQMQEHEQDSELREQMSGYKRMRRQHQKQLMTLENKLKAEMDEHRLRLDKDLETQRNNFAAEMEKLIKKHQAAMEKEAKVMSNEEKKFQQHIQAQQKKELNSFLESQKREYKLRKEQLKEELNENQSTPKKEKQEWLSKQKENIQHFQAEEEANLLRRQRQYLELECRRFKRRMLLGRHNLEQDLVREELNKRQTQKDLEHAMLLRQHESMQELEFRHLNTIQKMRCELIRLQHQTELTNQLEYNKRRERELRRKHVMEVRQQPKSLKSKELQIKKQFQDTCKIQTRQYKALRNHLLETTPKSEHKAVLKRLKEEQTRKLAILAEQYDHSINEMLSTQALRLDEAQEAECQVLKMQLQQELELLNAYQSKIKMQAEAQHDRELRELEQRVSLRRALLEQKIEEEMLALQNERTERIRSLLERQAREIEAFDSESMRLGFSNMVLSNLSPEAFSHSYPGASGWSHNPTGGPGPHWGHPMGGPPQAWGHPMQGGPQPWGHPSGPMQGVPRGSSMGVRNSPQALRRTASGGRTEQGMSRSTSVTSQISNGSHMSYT
# UniProt Q86VQ3: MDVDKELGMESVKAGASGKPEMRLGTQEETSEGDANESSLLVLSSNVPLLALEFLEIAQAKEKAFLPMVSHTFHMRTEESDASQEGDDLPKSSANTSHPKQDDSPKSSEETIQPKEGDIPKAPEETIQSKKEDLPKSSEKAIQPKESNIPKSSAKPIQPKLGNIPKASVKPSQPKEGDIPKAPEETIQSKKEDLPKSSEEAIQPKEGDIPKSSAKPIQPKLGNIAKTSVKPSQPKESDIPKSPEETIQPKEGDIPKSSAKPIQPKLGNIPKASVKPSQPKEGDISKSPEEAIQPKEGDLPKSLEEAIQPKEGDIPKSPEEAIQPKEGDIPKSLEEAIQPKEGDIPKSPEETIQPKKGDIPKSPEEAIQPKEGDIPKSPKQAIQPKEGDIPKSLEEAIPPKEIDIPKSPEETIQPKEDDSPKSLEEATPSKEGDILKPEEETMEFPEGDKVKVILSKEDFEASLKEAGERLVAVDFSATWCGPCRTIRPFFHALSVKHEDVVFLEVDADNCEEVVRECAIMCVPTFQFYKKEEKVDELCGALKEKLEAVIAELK
# UniProt Q7Z412: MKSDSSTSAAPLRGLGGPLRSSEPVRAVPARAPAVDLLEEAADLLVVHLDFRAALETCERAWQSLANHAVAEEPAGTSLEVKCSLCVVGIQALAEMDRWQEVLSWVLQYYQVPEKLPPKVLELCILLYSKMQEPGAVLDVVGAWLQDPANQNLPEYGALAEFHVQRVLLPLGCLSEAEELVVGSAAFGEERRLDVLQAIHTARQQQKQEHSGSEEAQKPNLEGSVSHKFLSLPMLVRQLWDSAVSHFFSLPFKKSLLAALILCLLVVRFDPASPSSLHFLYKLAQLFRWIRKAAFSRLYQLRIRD
# UniProt Q7Z569: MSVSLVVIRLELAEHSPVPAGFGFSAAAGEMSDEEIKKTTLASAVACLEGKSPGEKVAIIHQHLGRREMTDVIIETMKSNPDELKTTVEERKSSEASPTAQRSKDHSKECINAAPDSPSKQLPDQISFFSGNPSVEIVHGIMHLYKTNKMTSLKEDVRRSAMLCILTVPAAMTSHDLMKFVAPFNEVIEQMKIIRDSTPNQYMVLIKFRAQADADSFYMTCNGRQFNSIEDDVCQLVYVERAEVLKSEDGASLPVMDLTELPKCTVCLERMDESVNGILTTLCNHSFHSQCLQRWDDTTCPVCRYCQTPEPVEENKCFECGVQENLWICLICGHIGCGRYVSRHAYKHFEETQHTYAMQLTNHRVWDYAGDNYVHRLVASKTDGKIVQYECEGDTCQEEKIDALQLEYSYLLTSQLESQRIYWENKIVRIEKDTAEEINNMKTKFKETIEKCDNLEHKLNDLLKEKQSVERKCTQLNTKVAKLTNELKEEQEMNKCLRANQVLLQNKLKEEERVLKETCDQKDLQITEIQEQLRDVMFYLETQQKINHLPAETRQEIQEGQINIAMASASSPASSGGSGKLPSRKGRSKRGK
# UniProt Q6ZN18: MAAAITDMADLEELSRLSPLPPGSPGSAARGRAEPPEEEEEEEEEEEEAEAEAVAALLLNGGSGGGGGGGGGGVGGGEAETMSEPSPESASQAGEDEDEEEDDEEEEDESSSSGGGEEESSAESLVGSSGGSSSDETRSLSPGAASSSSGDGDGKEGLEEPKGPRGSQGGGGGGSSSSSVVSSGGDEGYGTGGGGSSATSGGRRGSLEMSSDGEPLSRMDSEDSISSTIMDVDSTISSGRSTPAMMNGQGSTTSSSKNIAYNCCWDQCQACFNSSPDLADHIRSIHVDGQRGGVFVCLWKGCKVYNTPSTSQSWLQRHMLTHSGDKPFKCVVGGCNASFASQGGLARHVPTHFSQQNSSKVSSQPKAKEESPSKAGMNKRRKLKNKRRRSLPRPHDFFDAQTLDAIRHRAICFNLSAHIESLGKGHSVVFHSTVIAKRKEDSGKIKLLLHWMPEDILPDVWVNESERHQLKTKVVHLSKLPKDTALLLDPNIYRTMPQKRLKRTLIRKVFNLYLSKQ
# UniProt Q86UE6: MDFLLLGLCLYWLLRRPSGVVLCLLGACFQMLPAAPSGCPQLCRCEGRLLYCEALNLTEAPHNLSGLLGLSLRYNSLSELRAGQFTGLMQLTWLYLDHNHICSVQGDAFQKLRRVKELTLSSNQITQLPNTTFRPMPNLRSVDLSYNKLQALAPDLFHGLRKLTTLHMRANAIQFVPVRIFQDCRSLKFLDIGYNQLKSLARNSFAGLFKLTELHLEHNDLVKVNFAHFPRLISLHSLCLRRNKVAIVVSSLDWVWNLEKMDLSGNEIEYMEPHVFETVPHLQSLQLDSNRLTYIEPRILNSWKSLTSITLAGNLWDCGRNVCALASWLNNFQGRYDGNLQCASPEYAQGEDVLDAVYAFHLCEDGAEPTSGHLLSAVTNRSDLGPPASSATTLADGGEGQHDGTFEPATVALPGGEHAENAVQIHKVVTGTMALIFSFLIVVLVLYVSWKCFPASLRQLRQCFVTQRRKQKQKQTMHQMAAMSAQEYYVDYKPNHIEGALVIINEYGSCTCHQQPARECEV
# UniProt Q7Z494: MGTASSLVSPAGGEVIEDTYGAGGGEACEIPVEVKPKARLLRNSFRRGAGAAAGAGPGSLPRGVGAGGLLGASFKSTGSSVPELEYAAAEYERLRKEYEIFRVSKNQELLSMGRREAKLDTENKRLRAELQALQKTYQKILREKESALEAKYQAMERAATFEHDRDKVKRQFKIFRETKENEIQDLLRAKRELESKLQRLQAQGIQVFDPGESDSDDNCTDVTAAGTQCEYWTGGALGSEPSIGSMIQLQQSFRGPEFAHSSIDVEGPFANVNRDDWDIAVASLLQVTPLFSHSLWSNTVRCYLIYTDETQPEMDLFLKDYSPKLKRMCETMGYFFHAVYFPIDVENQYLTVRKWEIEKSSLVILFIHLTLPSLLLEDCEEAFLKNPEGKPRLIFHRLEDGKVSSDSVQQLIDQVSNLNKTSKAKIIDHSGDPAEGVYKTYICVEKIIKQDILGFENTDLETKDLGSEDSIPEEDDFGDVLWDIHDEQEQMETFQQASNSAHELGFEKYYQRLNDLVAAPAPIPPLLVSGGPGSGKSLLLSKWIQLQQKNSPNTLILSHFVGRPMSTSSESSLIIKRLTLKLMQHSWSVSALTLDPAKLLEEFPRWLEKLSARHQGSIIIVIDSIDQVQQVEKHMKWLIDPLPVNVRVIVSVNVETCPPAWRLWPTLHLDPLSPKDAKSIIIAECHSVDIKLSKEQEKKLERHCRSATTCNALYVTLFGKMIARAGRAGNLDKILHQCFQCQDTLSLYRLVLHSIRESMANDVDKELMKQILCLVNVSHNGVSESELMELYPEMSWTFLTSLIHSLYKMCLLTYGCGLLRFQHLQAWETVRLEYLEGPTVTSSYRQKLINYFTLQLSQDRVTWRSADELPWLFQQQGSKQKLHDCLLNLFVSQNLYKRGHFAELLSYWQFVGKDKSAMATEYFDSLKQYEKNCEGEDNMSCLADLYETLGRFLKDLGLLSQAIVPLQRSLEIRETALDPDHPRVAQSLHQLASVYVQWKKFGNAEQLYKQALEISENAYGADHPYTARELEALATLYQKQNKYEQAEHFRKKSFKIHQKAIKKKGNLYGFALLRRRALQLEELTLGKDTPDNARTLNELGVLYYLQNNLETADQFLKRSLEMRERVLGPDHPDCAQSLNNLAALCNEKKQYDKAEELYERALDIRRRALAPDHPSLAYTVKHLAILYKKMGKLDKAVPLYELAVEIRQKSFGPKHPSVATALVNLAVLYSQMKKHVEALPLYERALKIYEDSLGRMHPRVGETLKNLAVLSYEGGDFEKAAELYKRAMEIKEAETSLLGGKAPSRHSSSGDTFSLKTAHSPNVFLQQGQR
# UniProt Q7Z6J9: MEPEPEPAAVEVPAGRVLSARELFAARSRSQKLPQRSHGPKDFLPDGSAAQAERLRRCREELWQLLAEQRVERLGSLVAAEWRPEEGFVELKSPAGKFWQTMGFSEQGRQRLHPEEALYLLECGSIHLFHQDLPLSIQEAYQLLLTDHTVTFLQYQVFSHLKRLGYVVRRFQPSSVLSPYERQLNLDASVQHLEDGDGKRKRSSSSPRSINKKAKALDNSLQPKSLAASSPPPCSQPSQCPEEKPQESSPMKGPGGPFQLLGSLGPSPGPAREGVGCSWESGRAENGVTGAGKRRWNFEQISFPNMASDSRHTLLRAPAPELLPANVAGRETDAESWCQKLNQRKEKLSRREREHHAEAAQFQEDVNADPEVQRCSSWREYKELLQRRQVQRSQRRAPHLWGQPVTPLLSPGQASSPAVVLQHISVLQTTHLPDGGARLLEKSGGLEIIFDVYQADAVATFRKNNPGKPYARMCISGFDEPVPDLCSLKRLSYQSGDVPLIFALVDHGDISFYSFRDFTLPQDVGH
# UniProt Q7Z7A4: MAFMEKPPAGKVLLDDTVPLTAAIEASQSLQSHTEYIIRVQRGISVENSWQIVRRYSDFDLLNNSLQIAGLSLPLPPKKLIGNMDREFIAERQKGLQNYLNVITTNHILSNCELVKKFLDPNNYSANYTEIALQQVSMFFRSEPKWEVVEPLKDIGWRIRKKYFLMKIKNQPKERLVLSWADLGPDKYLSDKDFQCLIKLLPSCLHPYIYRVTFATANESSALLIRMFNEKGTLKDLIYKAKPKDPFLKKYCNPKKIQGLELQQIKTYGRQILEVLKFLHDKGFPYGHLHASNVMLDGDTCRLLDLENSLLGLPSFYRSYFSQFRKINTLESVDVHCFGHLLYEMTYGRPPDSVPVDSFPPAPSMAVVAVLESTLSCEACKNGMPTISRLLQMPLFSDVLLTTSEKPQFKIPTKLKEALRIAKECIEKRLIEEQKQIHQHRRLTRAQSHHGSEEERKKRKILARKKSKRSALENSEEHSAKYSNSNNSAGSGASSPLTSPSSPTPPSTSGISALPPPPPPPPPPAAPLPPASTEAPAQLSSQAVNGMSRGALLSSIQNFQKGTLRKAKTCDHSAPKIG
# UniProt Q7L5Y9: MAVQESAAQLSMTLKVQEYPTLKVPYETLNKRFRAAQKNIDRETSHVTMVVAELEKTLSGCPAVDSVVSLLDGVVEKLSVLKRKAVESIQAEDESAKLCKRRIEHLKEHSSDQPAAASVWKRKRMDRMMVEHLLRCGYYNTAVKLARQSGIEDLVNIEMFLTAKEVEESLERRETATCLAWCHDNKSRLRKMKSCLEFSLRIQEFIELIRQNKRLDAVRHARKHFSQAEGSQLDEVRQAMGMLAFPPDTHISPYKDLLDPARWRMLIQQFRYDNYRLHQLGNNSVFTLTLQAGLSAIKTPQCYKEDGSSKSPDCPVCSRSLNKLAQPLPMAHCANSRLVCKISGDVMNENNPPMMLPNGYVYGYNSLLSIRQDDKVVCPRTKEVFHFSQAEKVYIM
# The list shows a part of the results. Most values lie at the level of the controls, where differences are scatter.
# Compound: CN[C@@H]1C[C@H]2O[C@@](C)([C@@H]1OC)n1c3ccccc3c3c4c(c5c6ccccc6n2c5c31)C(=O)NC4 [staurosporine]
# Experiment: log2 fold change of tryptic peptide abundance, ligand vs vehicle (limited proteolysis) (log2 ratio); higher = more trypsin-susceptible (destabilized)
# Conditions: ligand concentration: 20 uM; sample: K562 cleared lysate; digestion: 4 min, 22 C (HT-PELSA RT4min, Orbitrap Astral)
row,Target,log2 fold change
1,"TAOK1 (peptide sequence: HNLEQDLVREELNKR, peptide start residue: 627) (UniProt Q7L7X3)",-0.28
2,"UniProt Q71UM5 (peptide sequence: DLLHPSLEEEK, peptide start residue: 6)",0.201
3,"TXNDC2 (peptide sequence: ASVKPSQPK, peptide start residue: 167) (UniProt Q86VQ3)",-0.317
4,"PEX26 (peptide sequence: SDSSTSAAPLR, peptide start residue: 3) (UniProt Q7Z412)",0.302
5,"BRAP (peptide sequence: FVAPFNEVIEQMK, peptide start residue: 180) (UniProt Q7Z569)",-0.768
6,"AEBP2 (peptide sequence: HVPTHFSQQNSSK, peptide start residue: 348) (UniProt Q6ZN18)",-0.818
7,"UniProt Q86UE6 (peptide sequence: LQALAPDLFHGLR, peptide start residue: 149)",-0.113
8,"UniProt Q7Z494 (peptide sequence: HSSSGDTFSLK, peptide start residue: 1306)",0.54
9,"TSEN54 (peptide sequence: WNFEQISFPNMASDSR, peptide start residue: 296) (UniProt Q7Z6J9)",-0.198
10,"PXK (peptide sequence: AQSHHGSEEER, peptide start residue: 446) (UniProt Q7Z7A4)",0.313
11,"MAEA (peptide sequence: LAQPLPMAHCANSR, peptide start residue: 324) (UniProt Q7L5Y9)",-0.0886

# From no. 6 to 7, copied from above:
row,Target,log2 fold change
6,"AEBP2 (peptide sequence: HVPTHFSQQNSSK, peptide start residue: 348) (UniProt Q6ZN18)",-0.818
7,"UniProt Q86UE6 (peptide sequence: LQALAPDLFHGLR, peptide start residue: 149)",-0.113
